Reference: patent publication US7259004B1, “Endophytic streptomycetes from higher plants with biological activity” (Montana State University, priority 2002, dated 2007)
In brackets after ≈: the same amount, converted by molar mass.

Tests used:
Format in all cases: cell-based
[1] = test system: Pseudomonas aeruginosa ATCC 27853; experiment: disk diffusion assay; settings: 10 micrograms per disk; ciprofloxacin 5, vancomycin 30 micrograms per disk; 35° C. Note: key: R = resistant.
[2] = test system: Enterococcus faecalis ATCC 51299 (VRE); experiment: microbroth dilution MIC; settings: Table 15
E. faecalis 29212 = experiment: microbroth dilution MIC; settings: Enterococcus faecalis, ATCC29212; Table 15; read-out: MIC Enterococcus faecalis ATCC 29212

Row | SMILES | diameter of the zone of inhibition, Pseudomonas aeruginosa ATCC 27853 [1] | MIC [2] | MIC (E. faecalis 29212)
1 | O=C(O)c1cn(C2CC2)c2cc(N3CCNCC3)c(F)cc2c1=O [Ciprofloxacin, reference compound] | 30 mm |  | 
2 | CN[C@H](CC(C)C)C(=O)N[C@H]1C(=O)N[C@@H](CC(N)=O)C(=O)N[C@H]2C(=O)N[C@H]3C(=O)N[C@H](C(=O)N[C@H](C(=O)O)c4cc(O)cc(O)c4-c4cc3ccc4O)[C@H](O)c3ccc(c(Cl)c3)Oc3cc2cc(c3O[C@@H]2O[C@H](CO)[C@@H](O)[C@H](O)[C@H]2O[C@H]2C[C@](C)(N)[C@H](O)[C@H](C)O2)Oc2ccc(cc2Cl)[C@H]1O [Vancomycin, reference compound] |  | 4 mg/L (≈ 2.76 µM) | 2 mg/L (≈ 1.38 µM)
